Results reported in the supplement of paper PMC3334620.
The full ranking holds about 33,000 sequences; the median of “E-score (-0.5 to 0.5)” is about -0.015, and the highest 2% start at about 0.3. Some of the results follow.

Target: T1, Abf1 (UniProt P14164)
T1 sequence: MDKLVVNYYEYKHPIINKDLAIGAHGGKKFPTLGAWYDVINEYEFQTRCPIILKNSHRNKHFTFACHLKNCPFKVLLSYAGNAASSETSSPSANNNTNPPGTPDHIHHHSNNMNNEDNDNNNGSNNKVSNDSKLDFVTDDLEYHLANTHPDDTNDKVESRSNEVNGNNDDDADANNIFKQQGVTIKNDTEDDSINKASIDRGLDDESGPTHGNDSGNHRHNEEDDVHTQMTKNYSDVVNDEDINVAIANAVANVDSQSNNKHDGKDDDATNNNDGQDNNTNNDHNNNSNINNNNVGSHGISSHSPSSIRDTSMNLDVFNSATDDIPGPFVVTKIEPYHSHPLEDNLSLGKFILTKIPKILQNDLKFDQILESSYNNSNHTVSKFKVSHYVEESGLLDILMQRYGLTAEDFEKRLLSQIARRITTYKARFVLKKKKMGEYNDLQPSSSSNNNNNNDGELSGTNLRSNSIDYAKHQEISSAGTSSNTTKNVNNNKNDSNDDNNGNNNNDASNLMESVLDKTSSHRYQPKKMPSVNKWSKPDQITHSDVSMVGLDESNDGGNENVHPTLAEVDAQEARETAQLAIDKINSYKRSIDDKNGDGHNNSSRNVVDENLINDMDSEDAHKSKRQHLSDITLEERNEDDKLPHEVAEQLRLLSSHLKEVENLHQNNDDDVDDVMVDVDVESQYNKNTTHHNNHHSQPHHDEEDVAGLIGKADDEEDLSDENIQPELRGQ
Experiment: PBM E-score (8-mer binding enrichment) (E-score (-0.5 to 0.5)); higher = stronger / more preferred TF binding
Details: protein concentration: 200 nM; construct: GST-full length
In short: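 GST-tagged yeast TFs (full-length or DNA-binding domain) were made by PURExpress in vitro transcription/translation and applied at about 100-200 nM to universal all-10-mer Agilent arrays. The arrays were made double-stranded by primer extension, on fresh or once-stripped slides. Bound protein was detected with fluorescent anti-GST, and scans were normalised with masliner. Each ungapped eight-base word, pooled with its reverse complement, received an E-score (modified Wilcoxon-Mann-Whitney statistic) from the Universal PBM Analysis Suite.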

Row | Sequence | PBM E-score
1 | GAAACGCA | -0.161
2 | CTCAGGGC | -0.228
3 | CTGCCTCC | -0.296
4 | CACAGAAA | -0.0195
5 | CCCAAGTC | -0.113
6 | GACTATGA | 0.0989
7 | CGGCATAA | 0.0361
8 | CCTCTCAC | 0.0361
9 | CGTTGTGA | 0.0465
10 | AAAGGGGC | -0.191
11 | TCCCTACA | -0.0464
12 | AAGCCGGG | -0.0973
13 | GTAGGAAC | 0.0714
14 | GAATACCA | 0.0381
15 | CTATGGAA | -0.0164
16 | CTGGAAAG | 0.0529
17 | ACATATCA | 0.341
18 | CGAGTGGC | -0.112
19 | CTTCCGCA | -0.00655
20 | CACAATAC | 0.0342
21 | ACGTCGTC | 0.238
22 | AGCCAAAA | 0.0415
23 | AGTTCGTA | 0.264
24 | TGCGTCCA | -0.126
25 | CTTGGTTC | -0.053

5 entries from above, as comma-separated lines:
Row,Sequence,PBM E-score
18,CGAGTGGC,-0.112
19,CTTCCGCA,-0.00655
20,CACAATAC,0.0342
21,ACGTCGTC,0.238
22,AGCCAAAA,0.0415

The list continues.

Row | Sequence | PBM E-score
26 | CAAACATG | -0.0732
27 | ACCTTGGC | -0.256
28 | CTTGGTGC | -0.213
29 | CCCGGTAC | -0.0442
30 | CCTGCACA | -0.163
31 | ATGCATAA | 0.033
32 | ATGCATCC | -0.194
33 | GAATCCTA | 0.151
34 | GCGACCAA | -0.0512
35 | CGCGTAAA | 0.0624
36 | AACGGCAA | 0.224
37 | CTAGGGCA | -0.273
38 | AGTCTCGC | 0.00789
39 | AAAGCCTA | -0.182
40 | TCTCTTCA | 0.063
41 | ATGTGTTA | 0.212
42 | CTCCCCAG | -0.394
43 | TAGGTGAA | -0.0364
44 | ACCCTAAG | 0.0923
45 | CATTCATA | 0.154
46 | AGGCGGCA | -0.0675
47 | CCTAAGAC | -0.21
48 | CATGGTCG | -0.0567
49 | GGCAACCC | -0.0796
50 | AGATGTCG | 0.103

Row | Sequence | PBM E-score
51 | ACCCGCGA | 0.0496
52 | AACTCGGG | 0.0149
53 | GAAATGGA | 0.0553
54 | ACTATGCT | 0.0126
55 | AGTTGTCG | -0.0227
56 | AACACATT | -0.0385
57 | CAACACTA | 0.0223
58 | ATCCGTAA | 0.14
59 | CAGGAATG | -0.203
60 | CGTGGAGC | -0.0663
61 | TTAAATAA | 0.102
62 | TCGCGCAA | 0.188
63 | ACAAGGCG | -0.0424
64 | TGAGTAAA | -0.0564
65 | ACTTGGAT | 0.0225
66 | GGATAGGA | -0.137
67 | GAGCAGAA | -0.0795
68 | CGCGCCTA | 0.116
69 | CTCAGAGC | -0.255
70 | GAAAACGA | 0.252
71 | TGGTAACA | 0.0805
72 | AAAAAAAT | 0.172
73 | GAGAAAAC | -0.00255
74 | AAATTACC | -0.0299
75 | AGAGTAGC | -0.278

Row | Sequence | PBM E-score
76 | TCCGACCA | -0.143
77 | CTGCAGTC | -0.138
78 | TATCAGAA | 0.0936
79 | ATATGAAA | 0.242
80 | ATAATTGG | -0.0522
81 | AATATAGT | 0.102
82 | GTATTATA | 0.22
83 | ATGAGTTC | -0.0585
84 | ATAACCGG | -0.152
85 | AGACTATG | -0.227
86 | GAGATTAA | 0.0915
87 | ATTTGTTA | 0.201
88 | CCACAGTA | 0.00338
89 | ACGGGCAG | 0.00723
90 | CATTAATG | 0.221
91 | AGAGGCTC | -0.241
92 | CTTGGTAC | 0.22
93 | AATATGCC | -0.0427
94 | CTTTTCAC | 0.0993
95 | CTGATTAA | 0.186
96 | GGGACTAC | -0.0569
97 | CAATGCAC | 0.0437
98 | CAGTAATA | 0.304
99 | CGAGCGGA | -0.0371
100 | GAGGGCGC | -0.289

A few values from the entries so far.
TCCGACCA | PBM E-score: -0.143
AGAGGCTC | PBM E-score: -0.241
CTGATTAA | PBM E-score: 0.186
ATATGAAA | PBM E-score: 0.242
GGGACTAC | PBM E-score: -0.0569

Pulled one by one from above (3):
Row | Sequence | PBM E-score
6 | GACTATGA | 0.0989
85 | AGACTATG | -0.227
24 | TGCGTCCA | -0.126

Carrying on.

Row | Sequence | PBM E-score
101 | GGAGAGCA | -0.253
102 | CATAGATG | -0.276
103 | GGAAGGAC | 0.0147
104 | GAGTTAAA | 0.0205
105 | GACGCAGA | -0.0453
106 | CGCAGCAA | -0.037
107 | AAATTGCT | -0.194
108 | ATCTGAAG | -0.1
109 | AATCGTTC | 0.119
110 | CCTGGGTC | -0.151
111 | AGTTGATG | -0.0602
112 | AAGTACAG | -0.229
113 | TGTCTAAA | 0.189
114 | CGTCCAAG | -0.0596
115 | ATCTTATC | 0.0804
116 | GGGCGCTA | -0.0605
117 | ATCCCAAG | -0.123
118 | ACCCACAC | -0.00825
119 | AACGGAGG | -0.167
120 | AGACGTGC | 0.278
121 | GCGTAAGA | -0.0591
122 | AGCCTGTA | -0.0756
123 | AACTCTGT | -0.181
124 | CGCCTACC | -0.0178
125 | GACTACCC | -0.178

Row | Sequence | PBM E-score
126 | AATAGGCG | -0.0464
127 | AAAATCCA | 0.128
128 | GCGAACTA | -0.0767
129 | ACCATCAC | -0.0552
130 | CGACCGGC | -0.23
131 | GGGTACAA | -0.00239
132 | CGGCAAAG | -0.0158
133 | ACGTTTCA | 0.0549
134 | AGCATTGC | 0.026
135 | AGTAATCG | 0.0678
136 | AACTAGCA | -0.229
137 | GTTGGTCA | 0.221
138 | ACATCCTG | -0.0316
139 | AAACATCT | -0.077
140 | GGTATCCA | 0.023
141 | GCGTTCCC | -0.0877
142 | AGATCTGC | 0.127
143 | AGACTGCT | -0.264
144 | AGCATAAG | -0.0422
145 | ACTTGATC | 0.0974
146 | GGACGTTA | 0.0457
147 | GTCCTACA | -0.0143
148 | AATCTGTA | 0.0445
149 | ATCACATC | 0.117
150 | ATCACCAT | 0.254

Row | Sequence | PBM E-score
151 | AACAATAA | 0.183
152 | CCGTCAAG | 0.0668
153 | CAACGGGG | -0.0368
154 | ATTCACCG | 0.0879
155 | GTATCGAC | 0.0474
156 | CATTTAAC | -0.0151
157 | CTCGCCAC | 0.00709
158 | CCCAAGGA | -0.214
159 | AACCATGT | -0.0445
160 | GCAACACA | -0.165
161 | ACCGAATG | 0.0364
162 | GAGAGGGC | -0.392
163 | ACCTCTGA | -0.169
164 | AGTCTAAC | -0.2
165 | AAACGCCG | 0.185
166 | ATCTTGGG | 0.158
167 | CGAGATGA | 0.0379
168 | CCCCTGGC | -0.333
169 | CAGTGAAG | -0.0452
170 | AACCTGGC | -0.112
171 | ACTAATTC | 0.0769
172 | CAAGGTGC | -0.0647
